Laboratory results from US20080269114A1 (priority 2004, published 2008).

Assay: general procedure: Fmoc solid-phase peptide synthesis; PAL Peg-PS resin; HCTU
Conditions: whole synthesis, analytical HPLC, Vydac C18, 215 nm

Substance | purity (crude or final not stated)
Met30,Pro34]PYY | 96.9%
[Ala1,Pro34]-PYY | 95.0%
[Ala30,Pro34]-PYY | 90.0%
[Arg26,Pro34]PYY | 98.9%
[CLTRPRY-amide]x2 | 99.3%
[CTRPRY-amide]x2 | 100%
[Cys2,D-Cys27]-PP | 98.7%
[Glu4,Pro34]PYY | 100%
[Ile28,Pro34]PYY | 97.0%
[Pro34]-PYY | 91.6%
